Literature values, collected in patent publication US20220331492A1, “COMPOSITION AND METHOD FOR CONTROLLED DRUG RELEASE FROM A TISSUE” (Bard Shannon Limited, priority 2017, published 2022).
For part of these data: For at least one compound, name, drawing or mass did not settle the structure. Some of these results come from one statement about several compounds together.

How the values were obtained:
[1] = blended into Vitagel tissue sealant (fibrin glue with microfibrillar collagen); cited from earlier work
[2] = test system: various bacterial strains; settings: drug mixed with fibrin glue, cited from earlier work; for period in which most of the drug was released: release according to concentration gradient
[3] = after 4 hours; gelatin-alginate hydrogel crosslinked with EDC; cited from earlier work

| Compound | release time [1] [days] | elution time [2] | period in which most of the drug was released [2] [h] | drug contained in the gel released [3] [%] |
| --- | --- | --- | --- | --- |
| Cc1nnc(SCC2=C(C(=O)O)N3C(=O)[C@@H](NC(=O)Cn4cnnn4)[C@H]3SC2)s1 [cefazolin] | 2 to 4 | – | – | – |
| CC(C)(O/N=C(\C(=O)N[C@@H]1C(=O)N2C(C(=O)[O-])=C(C[n+]3ccccc3)CS[C@H]12)c1csc(N)n1)C(=O)O [ceftazidime] | – | up to 72 hours | ≤ 24 | – |
| O=c1[nH]cc(F)c(=O)[nH]1 [5-fluorouracil] | 2 to 4 | – | – | – |
| COc1c(N2C[C@@H]3CCCN[C@@H]3C2)c(F)cc2c(=O)c(C(=O)O)cn(C3CC3)c12 [moxifloxacin] | – | up to 72 hours | ≤ 24 | – |
| CCC[C@@H]1C[C@@H](C(=O)N[C@@H]([C@H]2O[C@H](SC)[C@H](O)[C@@H](O)[C@H]2O)[C@H](C)Cl)N(C)C1 [clindamycin] | – | – | – | 100 |
| CCn1cc(C(=O)O)c(=O)c2cc(F)c(N3CCNC(C)C3)c(F)c21 (stereo not drawn) [lomefloxacin] | – | up to 72 hours | ≤ 24 | – |
